# Experimental data taken from paper PMC8690912.
# Sequences of proteins named here, by UniProt entry; tags and fusion partners are left off.
# UniProt Q9CY97: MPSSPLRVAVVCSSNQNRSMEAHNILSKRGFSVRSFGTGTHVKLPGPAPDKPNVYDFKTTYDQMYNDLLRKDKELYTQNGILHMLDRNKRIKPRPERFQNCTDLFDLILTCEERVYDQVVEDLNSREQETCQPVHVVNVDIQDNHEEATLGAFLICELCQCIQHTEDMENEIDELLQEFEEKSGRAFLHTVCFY
# UniProt Q99J95: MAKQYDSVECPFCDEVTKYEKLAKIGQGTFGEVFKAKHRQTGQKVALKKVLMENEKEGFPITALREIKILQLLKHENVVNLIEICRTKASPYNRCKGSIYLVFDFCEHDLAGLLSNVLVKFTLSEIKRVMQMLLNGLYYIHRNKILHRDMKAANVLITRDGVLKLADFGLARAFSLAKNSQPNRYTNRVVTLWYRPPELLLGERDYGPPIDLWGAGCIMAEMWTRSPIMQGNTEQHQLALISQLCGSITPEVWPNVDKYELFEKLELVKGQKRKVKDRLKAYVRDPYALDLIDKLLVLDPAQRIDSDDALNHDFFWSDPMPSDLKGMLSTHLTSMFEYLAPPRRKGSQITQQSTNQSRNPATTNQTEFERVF
# UniProt Q9QWV9: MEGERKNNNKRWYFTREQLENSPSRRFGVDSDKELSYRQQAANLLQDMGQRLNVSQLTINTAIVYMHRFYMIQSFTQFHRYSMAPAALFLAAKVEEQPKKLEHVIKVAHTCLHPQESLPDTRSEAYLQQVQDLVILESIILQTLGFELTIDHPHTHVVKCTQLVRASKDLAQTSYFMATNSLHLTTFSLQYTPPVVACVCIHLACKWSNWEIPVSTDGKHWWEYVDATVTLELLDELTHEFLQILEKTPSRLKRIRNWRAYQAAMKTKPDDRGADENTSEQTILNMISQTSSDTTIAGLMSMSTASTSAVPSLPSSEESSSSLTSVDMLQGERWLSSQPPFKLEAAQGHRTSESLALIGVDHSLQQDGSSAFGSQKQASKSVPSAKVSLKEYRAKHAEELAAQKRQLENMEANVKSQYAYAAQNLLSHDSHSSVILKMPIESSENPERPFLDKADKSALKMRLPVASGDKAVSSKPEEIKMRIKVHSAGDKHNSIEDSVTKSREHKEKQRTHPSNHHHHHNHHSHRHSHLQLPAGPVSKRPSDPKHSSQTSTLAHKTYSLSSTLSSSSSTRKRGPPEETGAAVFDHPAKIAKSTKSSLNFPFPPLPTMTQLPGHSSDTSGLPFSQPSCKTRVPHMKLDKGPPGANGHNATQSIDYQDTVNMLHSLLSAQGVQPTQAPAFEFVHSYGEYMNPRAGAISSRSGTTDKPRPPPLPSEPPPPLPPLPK
# These are yes or no findings as the source states them, for the method shown. Binding seen in cells or lysates may run through a third protein. Some entries that bind do so weakly or less than the wild type.
# How the values were obtained:
# [1] = target: HA-tagged Ssu72 (HA-Ssu72) fusion protein (UniProt Q9CY97); test: co-IP; inducible MEFs expressing HA-Ssu72, without or with 2 µg/ml doxycycline for 48 h; cellular extracts incubated without or with 50 µg/ml RNase and immunoprecipitated with IgG or HA antibodies
# [2] = target: Ssu72 phosphatase (endogenous mouse Ssu72) (mouse (endogenous in MEFs)) (UniProt Q9CY97); test: co-IP; extracts (soluble cytoplasmic and pellet fractions mixed, salt diluted to 150 mM) of Ad-Luc or Ad-Cre (Ssu72-depleted) infected MEFs, immunoprecipitated with IgG, anti-Cdk9, anti-Ssu72 or anti-Pol II antibodies, then immunoblotted; all proteins endogenous
binding [1],binding [2],Substance
binds,binds,Cdk9 (from UniProt Q99J95 1-372) (enzyme)
binds,binds,Cyclin T1 (from UniProt Q9QWV9 1-724)
